# Results published in the supplement of paper PMC6411743.
# ± gives the standard deviation of the averaged measurements. This is one part of the list.
# Experiments:
# Assay in all cases: NP40-soluble protein abundance relative to vehicle (solubility fold change) (ratio); higher = more soluble protein in presence of GTP
# [1] = molecular target: T1, ALG5 (UniProt Q9Y673)
# T1 sequence (whole entry): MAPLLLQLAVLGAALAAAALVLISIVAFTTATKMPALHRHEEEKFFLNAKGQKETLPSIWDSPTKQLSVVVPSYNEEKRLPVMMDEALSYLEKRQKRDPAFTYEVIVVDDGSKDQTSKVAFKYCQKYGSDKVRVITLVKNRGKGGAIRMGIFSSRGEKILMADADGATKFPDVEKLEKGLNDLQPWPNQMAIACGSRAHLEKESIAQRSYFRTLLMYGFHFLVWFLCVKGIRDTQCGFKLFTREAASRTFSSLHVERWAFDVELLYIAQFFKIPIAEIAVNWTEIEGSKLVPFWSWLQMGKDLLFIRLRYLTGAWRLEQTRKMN
# In short: (§1)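 Each value is a fold change relative to the detergent-processed vehicle, calculated per replicate from vsn-normalised intensities. Jurkat crude lysate received eight concentrations (0.1 to 10 mM) for 10 min at room temperature and 3 min at 37 °C, then was solubilised in 0.8% NP40 with benzonase (60 min, 4 °C). The ultracentrifuged supernatant was TMT-labelled and run by LC-MS/MS in three independent experiments.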
# [2] = molecular target: T2, ATP11B (UniProt Q9Y2G3)
# T2 sequence (whole entry): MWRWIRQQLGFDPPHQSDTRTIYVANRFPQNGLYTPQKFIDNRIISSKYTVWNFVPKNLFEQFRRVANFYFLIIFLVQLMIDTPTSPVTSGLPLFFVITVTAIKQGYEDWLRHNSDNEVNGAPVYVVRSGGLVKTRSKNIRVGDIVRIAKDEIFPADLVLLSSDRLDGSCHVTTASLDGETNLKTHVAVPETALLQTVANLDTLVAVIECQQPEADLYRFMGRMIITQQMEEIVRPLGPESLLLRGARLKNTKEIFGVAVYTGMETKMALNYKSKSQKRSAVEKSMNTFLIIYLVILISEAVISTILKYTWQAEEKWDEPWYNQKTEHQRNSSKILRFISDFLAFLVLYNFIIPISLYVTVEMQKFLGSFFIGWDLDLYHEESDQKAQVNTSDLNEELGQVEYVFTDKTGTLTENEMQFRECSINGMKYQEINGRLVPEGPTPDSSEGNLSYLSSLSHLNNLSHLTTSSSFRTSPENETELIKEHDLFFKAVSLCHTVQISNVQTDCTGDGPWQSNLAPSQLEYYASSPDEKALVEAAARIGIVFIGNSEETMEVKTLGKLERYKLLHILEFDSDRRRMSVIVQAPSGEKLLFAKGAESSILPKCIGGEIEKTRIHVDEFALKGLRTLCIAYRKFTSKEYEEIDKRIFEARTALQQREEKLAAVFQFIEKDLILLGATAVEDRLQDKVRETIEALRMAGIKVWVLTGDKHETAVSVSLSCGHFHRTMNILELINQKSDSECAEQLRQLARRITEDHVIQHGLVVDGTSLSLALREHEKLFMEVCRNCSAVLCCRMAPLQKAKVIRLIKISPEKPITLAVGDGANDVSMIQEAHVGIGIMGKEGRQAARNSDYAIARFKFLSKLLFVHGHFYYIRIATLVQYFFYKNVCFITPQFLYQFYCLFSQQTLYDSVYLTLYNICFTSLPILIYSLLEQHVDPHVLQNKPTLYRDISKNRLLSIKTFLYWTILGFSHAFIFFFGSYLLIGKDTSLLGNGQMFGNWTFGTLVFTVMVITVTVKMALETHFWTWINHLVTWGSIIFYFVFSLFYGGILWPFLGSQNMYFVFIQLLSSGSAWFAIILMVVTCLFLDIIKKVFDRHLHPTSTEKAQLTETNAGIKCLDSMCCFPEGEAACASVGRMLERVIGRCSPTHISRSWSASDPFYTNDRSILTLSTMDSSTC
# In short: as §1
# [3] = molecular target: T3, CTDP1 (UniProt Q9Y5B0)
# T3 sequence (whole entry): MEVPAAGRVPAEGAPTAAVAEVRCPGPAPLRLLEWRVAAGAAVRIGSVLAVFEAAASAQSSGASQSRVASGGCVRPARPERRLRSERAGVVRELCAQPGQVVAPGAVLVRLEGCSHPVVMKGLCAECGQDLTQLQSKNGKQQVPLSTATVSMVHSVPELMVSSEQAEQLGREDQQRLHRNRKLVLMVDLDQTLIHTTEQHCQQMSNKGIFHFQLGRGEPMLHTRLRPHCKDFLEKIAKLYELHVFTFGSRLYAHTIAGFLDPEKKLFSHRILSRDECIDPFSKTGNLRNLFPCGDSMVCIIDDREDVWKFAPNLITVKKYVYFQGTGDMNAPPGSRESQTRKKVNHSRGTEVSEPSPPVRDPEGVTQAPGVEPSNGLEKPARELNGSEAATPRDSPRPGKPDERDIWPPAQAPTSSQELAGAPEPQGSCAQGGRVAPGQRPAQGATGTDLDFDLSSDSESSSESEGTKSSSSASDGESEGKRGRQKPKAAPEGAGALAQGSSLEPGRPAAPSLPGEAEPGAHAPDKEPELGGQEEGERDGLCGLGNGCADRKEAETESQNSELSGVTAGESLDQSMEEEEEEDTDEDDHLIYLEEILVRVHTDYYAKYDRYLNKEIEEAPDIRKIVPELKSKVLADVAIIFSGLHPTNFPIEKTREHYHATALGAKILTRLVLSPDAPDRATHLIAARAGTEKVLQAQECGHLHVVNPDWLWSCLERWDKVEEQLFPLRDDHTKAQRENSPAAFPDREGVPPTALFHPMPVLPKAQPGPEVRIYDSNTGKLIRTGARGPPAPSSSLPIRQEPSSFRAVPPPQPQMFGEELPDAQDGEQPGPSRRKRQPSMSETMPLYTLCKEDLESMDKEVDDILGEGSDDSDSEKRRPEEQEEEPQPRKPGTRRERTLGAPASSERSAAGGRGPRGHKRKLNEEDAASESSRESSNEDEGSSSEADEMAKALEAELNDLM
# In short: as §1
# [4] = molecular target: T4, DDX52 (UniProt Q9Y2R4)
# T4 sequence (whole entry): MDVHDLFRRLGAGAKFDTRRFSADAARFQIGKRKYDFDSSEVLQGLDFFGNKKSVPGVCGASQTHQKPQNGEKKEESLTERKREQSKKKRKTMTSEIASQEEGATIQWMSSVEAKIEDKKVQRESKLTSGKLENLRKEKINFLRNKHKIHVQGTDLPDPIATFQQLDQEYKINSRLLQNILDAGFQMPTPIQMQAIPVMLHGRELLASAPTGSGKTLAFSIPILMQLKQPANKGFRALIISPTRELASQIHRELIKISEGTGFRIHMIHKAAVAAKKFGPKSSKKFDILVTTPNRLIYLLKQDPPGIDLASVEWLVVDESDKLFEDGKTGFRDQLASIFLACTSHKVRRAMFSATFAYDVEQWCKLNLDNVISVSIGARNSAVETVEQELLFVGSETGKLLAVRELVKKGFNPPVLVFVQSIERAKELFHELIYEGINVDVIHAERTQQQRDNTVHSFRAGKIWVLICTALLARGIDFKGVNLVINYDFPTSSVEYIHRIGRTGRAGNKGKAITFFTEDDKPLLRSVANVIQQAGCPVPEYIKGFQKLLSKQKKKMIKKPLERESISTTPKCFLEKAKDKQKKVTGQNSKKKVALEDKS
# In short: as §1
smiles,measurement,setting,value
Nc1nc2c(ncn2[C@@H]2O[C@H](COP(=O)(O)OP(=O)(O)OP(=O)(O)O)[C@@H](O)[C@H]2O)c(=O)[nH]1 [guanosine triphosphate],NP40-soluble protein abundance,[1]; concentration: 0.1mM,0.992 ± 0.081
same,NP40-soluble protein abundance,[1]; concentration: 0.5mM,1.02 ± 0.098
same,NP40-soluble protein abundance,[1]; concentration: 1mM,0.956 ± 0.11
same,NP40-soluble protein abundance,[1]; concentration: 2mM,0.952 ± 0.092
same,NP40-soluble protein abundance,[1]; concentration: 4mM,0.928 ± 0.041
same,NP40-soluble protein abundance,[1]; concentration: 6mM,0.955 ± 0.095
same,NP40-soluble protein abundance,[1]; concentration: 8mM,0.916 ± 0.1
same,NP40-soluble protein abundance,[1]; concentration: 10mM,0.918 ± 0.092
same,NP40-soluble protein abundance,[2]; concentration: 0.1mM,1.09 ± 0.13
same,NP40-soluble protein abundance,[2]; concentration: 0.5mM,1.1 ± 0.081
same,NP40-soluble protein abundance,[2]; concentration: 1mM,1.03 ± 0.11
same,NP40-soluble protein abundance,[2]; concentration: 2mM,1.02 ± 0.12
same,NP40-soluble protein abundance,[2]; concentration: 4mM,1 ± 0.094
same,NP40-soluble protein abundance,[2]; concentration: 6mM,1.01 ± 0.13
same,NP40-soluble protein abundance,[2]; concentration: 8mM,0.996 ± 0.12
same,NP40-soluble protein abundance,[2]; concentration: 10mM,0.963 ± 0.062
same,NP40-soluble protein abundance,[3]; concentration: 0.1mM,1.05 ± 0.022
same,NP40-soluble protein abundance,[3]; concentration: 0.5mM,1.02 ± 0.032
same,NP40-soluble protein abundance,[3]; concentration: 1mM,1.091 ± 0.007
same,NP40-soluble protein abundance,[3]; concentration: 2mM,1.05 ± 0.036
same,NP40-soluble protein abundance,[3]; concentration: 4mM,1.1 ± 0.04
same,NP40-soluble protein abundance,[3]; concentration: 6mM,1.07 ± 0.041
same,NP40-soluble protein abundance,[3]; concentration: 8mM,1.12 ± 0.08
same,NP40-soluble protein abundance,[3]; concentration: 10mM,1.05 ± 0.056
same,NP40-soluble protein abundance,[4]; concentration: 0.1mM,0.995 ± 0.023
same,NP40-soluble protein abundance,[4]; concentration: 0.5mM,1.05 ± 0.023
same,NP40-soluble protein abundance,[4]; concentration: 1mM,1.05 ± 0.024
same,NP40-soluble protein abundance,[4]; concentration: 2mM,1.14 ± 0.065

# As a working copy, part of the list above:
smiles,measurement,setting,value
Nc1nc2c(ncn2[C@@H]2O[C@H](COP(=O)(O)OP(=O)(O)OP(=O)(O)O)[C@@H](O)[C@H]2O)c(=O)[nH]1 [guanosine triphosphate],NP40-soluble protein abundance,[2]; concentration: 4mM,1 ± 0.094
same,NP40-soluble protein abundance,[2]; concentration: 6mM,1.01 ± 0.13
